{"source": "patent US20070178575A1", "about": "“Identification Of A Nitrilase From B. Japonicum By Rational Genome Mining And Methods Of Use” (priority 2005, published 2007)", "assay": "Effects of temperature, pH and organic solvents on nitrilase activity", "type": "biochemical", "procedure": "For the determination of temperature effect, a mixture of nitrilase (0.5 mg) with benzyl cyanide (50 mM) in 1.0 ml of potassium phosphate buffer (100 mM, pH 7.1) was incubated at 25° C., 30° C., 37° C. and 45° C., respectively. Aliquots (100 μl) were taken after 1, 2, 4, and 16 hrs intervals, and acidified with 10 μl of 1M HC1. The formed phenylacetic acid was extracted into 200 μl of tert-butyl methyl ether, dried over anhydrous sodium sulfate, and quantified by GC analysis after converting to methyl ester with diazomethane.\nThe pH effect was studied using the following buffer: sodium citrate buffer (pH 4.91 and 5.44), potassium phosphate buffer (pH 6.07, 6.52, 7.10, 7.58, 7.98 and 8.49) and sodium bicarbonate buffer (pH 8.98). A mixture of nitrilase (0.5 mg) with benzyl cyanide (50 mM) in 1.0 ml of the respective buffer (100 mM) was incubated at 30° C. […] The formed phenylacetic acid was extracted into 200 μl of tert-butyl methyl ether, dried over anhydrous sodium sulfate, and quantified by GC analysis after converting to methyl ester with diazomethane.\nThe organic solvent effects were evaluated with dimethyl sulfoxide (DMSO), tert-butyl methyl ether, hexane, toluene and butyl acetate. […] The formed phenylacetic acid was extracted into 1 ml of tert-butyl methyl ether, dried over anhydrous sodium sulfate, and quantified by GC analysis after converting to methyl ester with diazomethane.", "data": [{"substance": "nitrilase bll6402: nitrilase (mandelonitrile hydrolase) from Bradyrhizobium japonicum USDA110, amino acid SEQ ID NO: 2, expressed in E. coli", "values": [{"measurement": "time the nitrilase was active at 45° C.", "setting": "45° C., pH 7.1, phenylacetonitrile", "result": "at least 2 hours"}, {"measurement": "temperature optimum", "setting": "phenylacetonitrile 50 mM, pH 7.1", "result": "≥ 45", "unit": "°C"}]}]}
